{"source": "patent US12427171B2", "about": "“Krill oil composition enriched in LPC-DHA and LPC-EPA” (Aker BioMarine Human Ingredients AS, priority 2020, dated 2025)", "key": {"[1]": {"experiment": "Molecular species of mouse retinal phospholipids containing DHA (LC/MS/MS)", "type": "in vivo", "settings": "mice, FIG. 26"}, "[2]": {"settings": "normal adult mice, same dose, reference (16); cited from earlier work"}}, "note": "At least one structure is not confirmed: it was looked up by name or label, or the drawing left a doubt."}
{"smiles": "CC/C=C\\C/C=C\\C/C=C\\C/C=C\\C/C=C\\C/C=C\\CCC(=O)O", "note": "[Free DHA, docosahexaenoic acid]", "values": [{"measurement": "DHA-containing molecular species of retinal PC and PE", "setting": "[1]", "value": "a few individual species of PC and PE containing DHA were increased, but at much lower levels compared to LPC-DHA"}, {"measurement": "effect on brain DHA", "setting": "[2]", "value": "no effect"}]}
